Results on one substance are retold here after publication PMC3566092.

These are yes or no findings as the source states them, for the method shown. Binding calls can cover weak binding; strength is not graded here.

For the assay, the target named is GST-Tax (human T cell leukemia virus type 1 (HTLV-1)) (UniProt P03409). The assay is described as follows: pull-down; GST-Tax bound to glutathione-sepharose beads 1 hr at 4°C in TEE buffer (50 mM Tris-HCl pH 7.9, 1 mM EDTA, 1 mM EGTA); His-WIP1 added, 2 hours at 4°C; washed 4 times in TEN100 (20 mM Tris-HCl pH 7.4, 0.1 mM EDTA, 100 mM NaCl); western blot with anti-His and anti-Tax; both purified. (A western blot detects proteins with antibodies after separation by electrophoresis.)

On to “Recombinant His-tagged WIP1ΔEx6 (from UniProt O15297) (enzyme)”, for which the binding result is listed as “binds”.
